From PMC7151078, “A Novel NMDA Receptor Antagonist Protects against Cognitive Decline Presented by Senescent Mice” (Pharmaceutics, 2020) come the findings set out here.

Type in all cases: in vivo, mouse
For series [1], the system named is SAMR1 and SAMP8 mice. Kind of series: Three-chamber test (TCT). The settings on record: 5 mg/Kg oral (drinking water), mean ± SEM. The procedure:
Male SAMR1 and SAMP8 mice (n = 41) with 20-weeks-old were used to carry out cognitive and molecular analysis. The animals were randomly divided into four groups: SAMR1 control (SR1 Ct) group (n = 11), SAMP8 control (SP8 Ct) group (n = 8), SAMR1 treated with RL-208 (SR1 RL-208 (5 mg/Kg)) group (n = 10) and SAMP8 treated with RL-208 (SP8 RL-208 (5 mg/Kg)) group (n = 12). Animals had free access to food and water, under standard temperature conditions (22±2 °C) and 12h:12h light-dark cycles (300 lux/0 lux). RL-208, (3,4,8,9-tetramethyltetracyclo[4.4.0.0^3,9.0^4,8]dec-1-yl)-methylamine hydrochloride, (5 mg/kg/day) was administered through drinking water for four weeks before starting the cognitive test. RL-208 was administered up to euthanasia (Figure 1A). Water consumption was controlled each week for each cage and strain. Afterwards, RL-208 concentration was adjusted accordingly to reach the optimal dose for each cage.
The three-chamber test (TCT) was used to assess preference for social novelty (time spent with a novel intruder in contrast with a familiar one) and sociability (time spent with rodents). The apparatus consisted of a rectangular box with partitions separating the box into three chambers (Figure 1B). Each chamber was 15 × 15 × 20 cm with square openings. Testing occurs in a box with three equally dimensioned rooms. Each test consists of 15 minutes and is recorded with a camera. The animal is placed in the center of the box and allowed to explore the three chambers for 5 minutes. The time spent in each chamber was evaluated. Then, an intruder (same-sex and age) was added to one of the rooms in a metal cup, and behaviour is recorded for 10 minutes. The time spent in each chamber is evaluated as well as the time interacting with the intruder (e.g., sniffing, rears, entries in each chamber).

For series [2], the system named is SAMR1 and SAMP8 mice. Kind of series: Novel object recognition test (NORT). The conditions noted are these: 5 mg/Kg, mean ± SEM. The protocol: Male SAMR1 and SAMP8 mice (n = 41) with 20-weeks-old were used to carry out cognitive and molecular analysis. The animals were randomly divided into four groups: SAMR1 control (SR1 Ct) group (n = 11), SAMP8 control (SP8 Ct) group (n = 8), SAMR1 treated with RL-208 (SR1 RL-208 (5 mg/Kg)) group (n = 10) and SAMP8 treated with RL-208 (SP8 RL-208 (5 mg/Kg)) group (n = 12). Animals had free access to food and water, under standard temperature conditions (22±2 °C) and 12h:12h light-dark cycles (300 lux/0 lux). RL-208, (3,4,8,9-tetramethyltetracyclo[4.4.0.0^3,9.0^4,8]dec-1-yl)-methylamine hydrochloride, (5 mg/kg/day) was administered through drinking water for four weeks before starting the cognitive test. RL-208 was administered up to euthanasia (Figure 1A). Water consumption was controlled each week for each cage and strain. Afterwards, RL-208 concentration was adjusted accordingly to reach the optimal dose for each cage. The novel object recognition test (NORT) allows evaluating short- and long-term recognition memory involving cortical areas and the hippocampus. The experimental apparatus used for this test was a 90º, two-arm, 25-cm-long, 20-cm-high, and a 5-cm-wide black maze of black polyvinyl chloride (Figure 1D). The walls could be removed for easy cleaning with 70% ethanol to eliminate olfactory cues, and light intensity in mid-field was 30 lux. The objects to be discriminated were made of plastic and chosen not to frighten mice and without any part likely to be bitten. Before performing the test, the mice were individually habituated to the apparatus for 10 min during 3 consecutive days. On day four the next day, the animals were allowed to explore freely a 10 min acquisition trial (First trial), during which they were placed in the maze in the presence of two identical novel objects (A+A’ or B+B’) at the end of each arm. The mouse was then removed from the apparatus and returned to its home cage. A 10 min retention trial (Second trial) was carried out two hours later. […] The time that mice explored the novel object (TN) and time that mice explored the old object (TO) were measured from the video recordings from each trial session Exploration of an object was defined as pointing the nose towards the object at a distance ≤2 cms and/or touching it with the nose. […] To avoid object preference biases objects A and B were counterbalanced so that one-half of the animals in each experimental group were first exposed to object A and then to object B, whereas the other half first saw object B and then object A. To evaluate the cognitive performance, the discrimination index (DI) was calculated, which is defined as (TN-TO)/(TN+TO).

Series [3] relates to SAMR1 and SAMP8 mice. Kind of series: Object location test (OLT). The settings on record: 5 mg/Kg, mean ± SEM. The protocol:
Male SAMR1 and SAMP8 mice (n = 41) with 20-weeks-old were used to carry out cognitive and molecular analysis. The animals were randomly divided into four groups: SAMR1 control (SR1 Ct) group (n = 11), SAMP8 control (SP8 Ct) group (n = 8), SAMR1 treated with RL-208 (SR1 RL-208 (5 mg/Kg)) group (n = 10) and SAMP8 treated with RL-208 (SP8 RL-208 (5 mg/Kg)) group (n = 12). Animals had free access to food and water, under standard temperature conditions (22±2 °C) and 12h:12h light-dark cycles (300 lux/0 lux). RL-208, (3,4,8,9-tetramethyltetracyclo[4.4.0.0^3,9.0^4,8]dec-1-yl)-methylamine hydrochloride, (5 mg/kg/day) was administered through drinking water for four weeks before starting the cognitive test. RL-208 was administered up to euthanasia (Figure 1A). Water consumption was controlled each week for each cage and strain. Afterwards, RL-208 concentration was adjusted accordingly to reach the optimal dose for each cage. The object location test (OLT) is a well-established task based on the spontaneous tendency of rodents to spend more time exploring a novel object location than a familiar object location, as well as to recognize when an object has been relocated. The test was carried out for 3 days in a wooden box (50 × 50 × 25 cm), in which three walls were white except one that was black (Figure 1C). The first day, the box was empty, and the animals just habituated to the open field arena for 10 minutes. The second day, two objects were placed in front of the black wall, equidistant from each other and the wall. The objects were 10-cm high and identical. The animals were placed into the open field arena and allowed to explore both objects and surroundings for 10 minutes. Afterwards, animals were returned to their home cages, and the OLT apparatus was cleaned with 70% ethanol. On the third day, one object was moved in front of the white wall to test the spatial memory. Trials were recorded using a camera mounted above the open field area, and the total exploration time was determined by scoring the amount of time (seconds) spent sniffing the object in the new location (TN) and the object in the old location (TO). In order to evaluate the cognitive performance, the DI was calculated, which is defined as (TN-TO)/(TN+TO).

Take `CC12CC3CC1(C)C1(C)CC3(CN)CC21C.Cl` [RL-208, (3,4,8,9-tetramethyltetracyclo [4.4.0.0^3,9.0^4,8]dec-1-yl)methylamine hydrochloride]: in the series on SAMR1 and SAMP8 mice [1] (SP8 mice), the “Time in Chamber: Habituation, Center zone” value stood at 53.35 ± 6.20 s; the “Time in Chamber: Habituation, Left zone” value was determined as 97.55 ± 9.68 s; the “Time in Chamber: Habituation, Right zone” value is 149.10 ± 10.41^$ sec. Also, in the series with SAMR1 and SAMP8 mice [1] (SR1 mice), the “Time in Chamber: Habituation, Center zone” value turned out to be 104.71 ± 17.62 s; the “Time in Chamber: Habituation, Left zone” value was determined as 108.57 ± 23.52 s; the “Time in Chamber: Habituation, Right zone” value was 86.72 ± 17.61 s. Besides, in the series with SAMR1 and SAMP8 mice [2] (SP8 mice), the “Time spent exploring objects: Familiarization phase, Left object” value came to 39.63 ± 4.29 s and the “Time spent exploring objects: Familiarization phase, Right Object” value turned out to be 41.27 ± 3.07 s. Further, in the series on SAMR1 and SAMP8 mice [2] (SR1 mice), the “Time spent exploring objects: Familiarization phase, Left object” value was 39.88 ± 4.06 s and the “Time spent exploring objects: Familiarization phase, Right Object” value was 41.08 ± 2.56 s. For the same molecule, in the series on SAMR1 and SAMP8 mice [3] (SP8 mice), the “Time spent exploring objects: Habituation phase, Object A1” value stood at 23.13 ± 2.09 s and the “Time spent exploring objects: Habituation phase, Object A2” value worked out at 26.47 ± 2.87 s. In addition, in the series with SAMR1 and SAMP8 mice [3] (SR1 mice), the “Time spent exploring objects: Habituation phase, Object A1” value amounted to 21.96 ± 1.96 s and the “Time spent exploring objects: Habituation phase, Object A2” value came out at 25.78 ± 3.06 s.
